These are yes or no findings as the source states them, for the method shown. Binding seen in cells or lysates may run through a third protein. Some entries that bind do so weakly or less than the wild type.
Target: HDAC1 (human (endogenous in AGS)) (UniProt Q13547)
Assay: co-IP; lysates of AGS cells treated with 10 ng/ml recombinant IL1B or left untreated; 200 mM NaCl, 20 mM Tris-HCl pH 7.5, 1% Triton X-100, 1 mM DTT; immunoprecipitated overnight with anti-HDAC1 or anti-p300 antibody, Protein-G sepharose; blotted with anti NFkB p65 antibody; rabbit normal IgG as control

Sequences of proteins named here, by UniProt entry; tags and fusion partners are left off.
UniProt Q13547: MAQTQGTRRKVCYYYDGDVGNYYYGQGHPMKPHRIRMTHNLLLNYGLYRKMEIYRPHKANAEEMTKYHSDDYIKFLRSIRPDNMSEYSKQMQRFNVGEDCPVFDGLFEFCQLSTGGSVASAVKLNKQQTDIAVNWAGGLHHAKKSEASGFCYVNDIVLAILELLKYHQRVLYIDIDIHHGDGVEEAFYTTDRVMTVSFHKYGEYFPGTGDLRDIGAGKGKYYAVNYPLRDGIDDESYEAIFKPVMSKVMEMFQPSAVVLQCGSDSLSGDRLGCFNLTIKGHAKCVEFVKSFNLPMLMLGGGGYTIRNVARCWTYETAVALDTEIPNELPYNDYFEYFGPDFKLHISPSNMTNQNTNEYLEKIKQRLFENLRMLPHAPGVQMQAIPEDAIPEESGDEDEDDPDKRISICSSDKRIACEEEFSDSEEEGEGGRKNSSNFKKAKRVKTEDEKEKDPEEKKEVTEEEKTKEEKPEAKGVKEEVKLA
UniProt Q04206: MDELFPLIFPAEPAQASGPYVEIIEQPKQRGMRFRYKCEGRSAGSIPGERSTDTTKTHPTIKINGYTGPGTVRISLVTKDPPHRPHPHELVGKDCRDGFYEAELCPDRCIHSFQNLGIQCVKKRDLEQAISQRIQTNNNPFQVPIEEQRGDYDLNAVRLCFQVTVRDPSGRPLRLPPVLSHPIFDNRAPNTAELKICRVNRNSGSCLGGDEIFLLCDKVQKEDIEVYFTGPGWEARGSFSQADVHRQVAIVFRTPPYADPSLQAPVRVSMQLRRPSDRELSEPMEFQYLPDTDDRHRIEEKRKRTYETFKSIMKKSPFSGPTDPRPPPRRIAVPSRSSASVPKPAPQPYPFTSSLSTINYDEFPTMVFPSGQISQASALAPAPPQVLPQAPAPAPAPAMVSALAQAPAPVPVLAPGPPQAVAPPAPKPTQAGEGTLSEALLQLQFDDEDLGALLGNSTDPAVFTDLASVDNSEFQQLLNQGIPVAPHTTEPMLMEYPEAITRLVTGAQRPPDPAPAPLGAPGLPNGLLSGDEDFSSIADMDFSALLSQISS

binding: binds
Substance: NFkB p65 (from UniProt Q04206 1-551)

Reference: publication PMC3751843
